Results reported in patent US20140205582A1, “MEGAKARYOCYTE PROGENITOR CELLS FOR PRODUCTION OF PLATELETS” (CELLERANT THERAPEUTICS, INC., priority 2011, published 2014).
Some results were stated once for a whole list of compounds, not compound by compound.

Test system: human CD34+ cells
Assay: Expansion of CD34+ cells into MKPs in serum-free culture
Format: cell-based
Settings: concentration in CD34+ expansion medium
From the text: Isolation of human CD34^+ cells. G-CSF mobilized peripheral blood was harvested from healthy donors via leukapheresis (see, e.g., Kawamoto et al. (2009) Stem Cells 27:2857). CD34+ cells were positively selected using magnetic beads (Dynal, Lake Success, N.Y.) linked to anti-CD34 monoclonal antibody on an Isolex Device (Baxter, Deerfield, Ill.). […] Aliquots of 15-20×10^6 cells/ml were cryopreserved until use.
Expansion of CD34^+ cells. CD34^+ cells from donors were thawed, pooled as indicated, and seeded at 5×10^5 cells/ml in serum-free X-vivo 15 medium (Lonza, Walkersville, Md.) supplemented with IX GlutaMAX (Invitrogen, Carlsbad, Calif.). Cytokines were added as follows. […] Cultures were incubated at 37° C. in a humidified atmosphere containing 5% carbon dioxide. Viable cells were counted daily and cell concentration was readjusted to about 5×10^5 cells/ml by the addition of fresh medium with cytokines.
Analysis of MKPs. Cell surface marker expression was analyzed by flow cytometry using CD15b, CD33, CD34, CD41, CD42a, CD90, and CD184 antibodies. Prior to antibody staining, cells were washed with HBSS containing 2% BSA and blocked with rat and mouse IgG (SouthernBiotech, Birmingham, AL) for 10 minutes at 4° C. […]

Substance	active range
IL-1α: interleukin-1 alpha cytokine (Peprotech)	1 to 200 ng/mL
IL-9: interleukin-9 cytokine, also known as megakaryoblast growth factor	1 to 200 ng/mL
